Here are results for two molecules from doi:10.1101/2025.05.09.653063 (bioRxiv, 2025).

These are yes or no findings as the source states them, for the method shown. Binding seen in cells or lysates may run through a third protein. Binding can be weak; no strength is given. Tags and fused reporters may be left off the sequences shown.

Experiment in all cases: pull-down
Experiment [1] deals with T1, His-tagged PsmA T213E (Saccharolobus islandicus REY15A) (UniProt C3MQ43).
T1 sequence: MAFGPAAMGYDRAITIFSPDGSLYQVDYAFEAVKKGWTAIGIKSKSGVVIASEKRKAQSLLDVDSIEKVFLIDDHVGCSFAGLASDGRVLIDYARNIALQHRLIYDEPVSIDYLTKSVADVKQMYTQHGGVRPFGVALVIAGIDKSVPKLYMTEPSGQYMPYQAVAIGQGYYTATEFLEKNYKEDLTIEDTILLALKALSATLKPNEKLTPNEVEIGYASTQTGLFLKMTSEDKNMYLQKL

In experiment [2] the target is T2, His-tagged PsmA S200D (Saccharolobus islandicus REY15A) (UniProt C3MQ43).
T2 sequence: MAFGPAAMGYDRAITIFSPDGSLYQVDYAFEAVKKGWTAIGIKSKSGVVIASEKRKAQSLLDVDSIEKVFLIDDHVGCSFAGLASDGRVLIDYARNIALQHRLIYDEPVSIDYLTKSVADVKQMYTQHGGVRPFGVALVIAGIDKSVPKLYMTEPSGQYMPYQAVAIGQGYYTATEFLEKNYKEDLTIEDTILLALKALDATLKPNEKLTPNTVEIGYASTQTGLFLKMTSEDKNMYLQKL

For experiment [3], the target named is T3, His-tagged wild type PsmA (Saccharolobus islandicus REY15A) (UniProt C3MQ43).
T3 sequence: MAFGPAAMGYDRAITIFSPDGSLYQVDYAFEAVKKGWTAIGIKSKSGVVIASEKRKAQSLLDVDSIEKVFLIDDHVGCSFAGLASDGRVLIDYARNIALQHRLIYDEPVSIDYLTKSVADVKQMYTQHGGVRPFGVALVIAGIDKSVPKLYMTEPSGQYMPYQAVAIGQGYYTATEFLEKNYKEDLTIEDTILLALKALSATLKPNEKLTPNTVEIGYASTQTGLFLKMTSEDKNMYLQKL

The target in experiment [4] is proteasome assembly factor SiRe_1163, overexpressed in Sa. islandicus (Saccharolobus islandicus REY15A) (UniProt F0NEV0).
Experiment [5] concerns the target proteasome assembly factor SiRe_1724, overexpressed in Sa. islandicus (Saccharolobus islandicus REY15A) (UniProt F0NIK1).

Consider proteasome β subunit PsmB1 (SiRe_1237), for which the binding entry in experiment [1], in experiment [2] and in experiment [3] was “binds” throughout.

B1: His-tagged wild type PsmA (natural protein, Saccharolobus islandicus REY15A, UniProt C3MQ43 1-241, looked up)
chain: MAFGPAAMGYDRAITIFSPDGSLYQVDYAFEAVKKGWTAIGIKSKSGVVIASEKRKAQSLLDVDSIEKVFLIDDHVGCSFAGLASDGRVLIDYARNIALQHRLIYDEPVSIDYLTKSVADVKQMYTQHGGVRPFGVALVIAGIDKSVPKLYMTEPSGQYMPYQAVAIGQGYYTATEFLEKNYKEDLTIEDTILLALKALSATLKPNEKLTPNTVEIGYASTQTGLFLKMTSEDKNMYLQKL
Regarding B1, the binding entry in experiment [4] and in experiment [5] was “binds” in each case.
